{
  "source": "paper PMC11480453",
  "molecules": {"B1": {"name": "3xflag-SPCS3 (protein, UniProt P61009 1-180)", "chain": "MNTVLSRANSLFAFSLSVMAALTFGCFITTAFKDRSVPVRLHVSRIMLKNVEDFTGPRERSDLGFITFDITADLENIFDWNVKQLFLYLSAEYSTKNNALNQVVLWDKIVLRGDNPKLLLKDMKTKYFFFDDGNGLKGNRNVTLTLSWNVVPNAGILPLVTGSGHVSVPFPDTYEITKSY"}},
  "test_in_all_cases": "co-IP",
  "key": {"[1]": {"biological_target": "T1, 3xflag-SPCS3 (human (cDNA from THP-1 cells)) (UniProt P61009)", "T1 sequence": "B1 chain"}, "[2]": {"biological_target": "myc-E2 (chikungunya virus, vaccine strain 181/clone 25)"}, "[3]": {"biological_target": "CHIKV E1-3xflag (chikungunya virus, vaccine strain 181/clone 25)"}},
  "note": "These are yes or no findings as the source states them, for the method shown. In cells and extracts the contact can be indirect. For some assays here: Binding calls can cover weak binding; strength is not graded here. Where a sequence is shown, tags or fusion partners need not be part of it.",
  "data": [
    {"molecule": "CHIKV E1 glycoprotein", "values": [
      {"measurement": "binding", "setting": "[1]", "value": "binds"}
    ]},
    {"molecule": "CHIKV poly-glycoprotein E3-myc-E2-6K-E1 (uncleaved)", "values": [
      {"measurement": "binding", "setting": "[1]", "value": "binds"}
    ]},
    {"molecule": "myc-E2", "values": [
      {"measurement": "binding", "setting": "[1]", "value": "no binding"}
    ]},
    {"molecule": "B1", "values": [
      {"measurement": "binding", "setting": "[2]", "value": "no binding"},
      {"measurement": "binding", "setting": "[3]", "value": "binds"}
    ]}
  ]
}
